# Measurements: PubChem BioAssay AID256 (DTP/NCI, 2004)
# The list shows only some results of the screen, not a fair sample: it is rich in T/C values a quarter to a half above the control, in often repeated tests (any T/C) and in doses without a T/C. Further doses and runs are listed elsewhere. T/C: endpoint of the treated group in % of that of the vehicle group. Some doses have a count of surviving animals in place of a T/C: the source files T/C as zero there, which appears to mark a toxic dose or a test without result, not a measured value. Some doses without a T/C left all or most animals alive at the check, yet need not have been tolerated: survival well below the control is almost never listed, so the zero probably covers shortened survival too. Survivors were counted at the toxicity check, usually on the fifth day, unless a day is given; later deaths do not show. Schedules are NCI's codes, read here as Q, the interval in days (D) or hours (H), X, the number of doses. For survival time, this PubChem deposit counts one and a half times the control or more as active, and values a quarter to a half above the control carry no call in these data; other NCI protocols may use other cut-offs.
# Test system: CD2F1 mice, L1210 leukemia ip, survival T/C
# Experiment: NCI In Vivo Anticancer Drug Screen. Data for tumor model L1210 Leukemia (intraperitoneal) in CD2F1 (CDF1) mice
# Conditions: higher T/C = longer survival
# Procedure, shortened: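 Tumor-bearing mice (transplanted tumor) were split into treated and vehicle control groups, and the measured endpoint of each treated group was divided by that of its vehicle controls.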
# [1] = T/C endpoint: mean survival time, dose: 200.0 mg/kg/injection, schedule: Q04DX003 (ip), vehicle: saline with Tween-80
# [2] = T/C endpoint: mean survival time, dose: 400.0 mg/kg/injection, schedule: Q01DX009 (ip), vehicle: saline with Tween-80
# [3] = T/C endpoint: mean survival time, dose: 200.0 mg/kg/injection, schedule: Q01DX009 (ip), vehicle: saline with Tween-80
# [4] = T/C endpoint: mean survival time, dose: 100.0 mg/kg/injection, schedule: Q01DX001 (ip), vehicle: saline with Tween-80
# [5] = T/C endpoint: mean survival time, dose: 200.0 mg/kg/injection, schedule: Q01DX001 (ip), vehicle: saline with Tween-80
# [6] = T/C endpoint: mean survival time, dose: 400.0 mg/kg/injection, schedule: Q01DX001 (ip), vehicle: saline with Tween-80
# [7] = T/C endpoint: mean survival time, dose: 100.0 mg/kg/injection, schedule: Q01DX009 (ip), vehicle: saline with Tween-80
# [8] = T/C endpoint: mean survival time, dose: 400.0 mg/kg/injection, schedule: Q04DX003 (ip), vehicle: saline with Tween-80
# [9] = T/C endpoint: mean survival time, dose: 150.0 mg/kg/injection, schedule: Q01DX001 (ip), vehicle: saline
# [10] = T/C endpoint: mean survival time, dose: 300.0 mg/kg/injection, schedule: Q01DX001 (ip), vehicle: saline
# [11] = T/C endpoint: mean survival time, dose: 200.0 mg/kg/injection, schedule: Q04DX003 (ip), vehicle: Klucel (hydroxypropylcellulose) (HPC)
# [12] = T/C endpoint: median survival time, dose: 200.0 mg/kg/injection, schedule: Q01DX005 (ip), vehicle: water
# [13] = T/C endpoint: mean survival time, dose: 80.0 mg/kg/injection, schedule: Q01DX001 (ip), vehicle: saline
smiles,measurement,setting,value
CC(C)[C@]12O[C@H]1[C@@H]1O[C@]13[C@]1(O[C@H]1C[C@H]1C4=C(C(=O)OC4)[C@@H](O)C[C@@]13C)[C@@H]2O,T/C,"T/C endpoint: mean survival time, dose: 125.0 micrograms/kg/injection, schedule: Q01DX009 (ip), vehicle: saline + alcohol",142 % of control
same,T/C,"T/C endpoint: median survival time, dose: 16.0 micrograms/kg/injection, schedule: Q03HX024 (ip), vehicle: saline + alcohol",126 % of control
same,T/C,"T/C endpoint: median survival time, dose: 16.0 micrograms/kg/injection, schedule: Q03HX024 (ip), vehicle: saline",125 % of control
same,T/C,"T/C endpoint: median survival time, dose: 30.0 micrograms/kg/injection, schedule: Q03HX024 (ip), vehicle: saline",148 % of control
same,T/C,"T/C endpoint: median survival time, dose: 31.2 micrograms/kg/injection, schedule: Q03HX008 (ip), vehicle: saline + alcohol",127 % of control
same,T/C,"T/C endpoint: median survival time, dose: 31.2 micrograms/kg/injection, schedule: Q03HX016 (ip), vehicle: saline + alcohol",144 % of control
same,T/C,"T/C endpoint: median survival time, dose: 60.0 micrograms/kg/injection, schedule: Q01DX009 (ip), vehicle: saline",127 % of control
same,T/C,"T/C endpoint: median survival time, dose: 125.0 micrograms/kg/injection, schedule: Q01DX009 (ip), vehicle: saline + alcohol",136 % of control
same,survivor count,"T/C endpoint: median survival time, dose: 130.0 micrograms/kg/injection, schedule: Q03HX024 (ip), vehicle: saline",3 of 10
same,T/C,"T/C endpoint: median survival time, dose: 250.0 micrograms/kg/injection, schedule: Q01DX009 (sc), vehicle: saline + alcohol",133 % of control
same,survivor count,"T/C endpoint: median survival time, dose: 250.0 micrograms/kg/injection, schedule: Q03HX008 (ip), vehicle: saline + alcohol",0 of 10
same,survivor count,"T/C endpoint: median survival time, dose: 250.0 micrograms/kg/injection, schedule: Q03HX016 (ip), vehicle: saline + alcohol",0 of 10
same,survivor count,"T/C endpoint: median survival time, dose: 500.0 micrograms/kg/injection, schedule: Q03HX008 (ip), vehicle: saline + alcohol",0 of 10
same,survivor count,"T/C endpoint: median survival time, dose: 1000.0 micrograms/kg/injection, schedule: Q01DX001 (sc), vehicle: saline + alcohol",6 of 10
same,survivor count,"T/C endpoint: median survival time, dose: 2000.0 micrograms/kg/injection, schedule: Q01DX001 (ip), vehicle: saline + alcohol",0 of 10
same,survivor count,"T/C endpoint: median survival time, dose: 2000.0 micrograms/kg/injection, schedule: Q01DX001 (sc), vehicle: saline + alcohol",0 of 10
same,survivor count,"T/C endpoint: median survival time, dose: 2000.0 micrograms/kg/injection, schedule: Q08DX002 (ip), vehicle: saline + alcohol",0 of 10
same,survivor count,"T/C endpoint: median survival time, dose: 4000.0 micrograms/kg/injection, schedule: Q01DX001 (ip), vehicle: saline + alcohol",0 of 10
same,survivor count,"T/C endpoint: median survival time, dose: 4000.0 micrograms/kg/injection, schedule: Q01DX001 (sc), vehicle: saline + alcohol",0 of 10
C=C(C)C(=O)OCC(O)C[N+](C)(C)C (centres undefined),survivor count,[1],4 of 6
O=C1NC(=O)NC(C(=O)O)N1,survivor count,"T/C endpoint: mean survival time, dose: 200.0 mg/kg/injection, schedule: Q01DX009 (ip), vehicle: DMSO",1 of 6
same,survivor count,"T/C endpoint: mean survival time, dose: 400.0 mg/kg/injection, schedule: Q01DX009 (ip), vehicle: DMSO",1 of 6
O=C(O)c1c2c(nc3c(Cl)cccc13)-c1ccccc1C2,survivor count,[2],2 of 6
C(=Nc1ccc(-c2ccccc2)cc1)c1ccccc1,survivor count,[3],5 of 6
COc1cc(C=Nc2cc(Br)cc(Br)c2)ccc1N(CCCl)CCCl,T/C,"T/C endpoint: mean survival time, dose: 50.0 mg/kg/injection, schedule: Q01DX001 (ip), vehicle: other",125 % of control
same,T/C,"T/C endpoint: mean survival time, dose: 100.0 mg/kg/injection, schedule: Q01DX001 (ip), vehicle: other",141 % of control
CCOC(=O)c1c(O)c2c([nH]c1=O)CCc1ccccc1-2,survivor count,[4],6 of 6
same,survivor count,[5],6 of 6
same,survivor count,[6],6 of 6
C(#Cc1ccccc1)C[P+](c1ccccc1)(c1ccccc1)c1ccccc1,survivor count,"T/C endpoint: mean survival time, dose: 10.0 mg/kg/injection, schedule: Q01DX009 (ip), vehicle: saline with Tween-80",2 of 6
same,survivor count,"T/C endpoint: mean survival time, dose: 20.0 mg/kg/injection, schedule: Q01DX009 (ip), vehicle: saline with Tween-80",2 of 6
same,survivor count,[4],0 of 6
same,survivor count,[5],0 of 6
same,survivor count,[6],0 of 6
O=C(O)c1ccc(O)cc1C(=O)O.[NH-]C1CCCCC1[NH-].[Pt+2],T/C,"T/C endpoint: mean survival time, dose: 2.35 mg/kg/injection, schedule: Q04DX003 (ip), vehicle: other",125 % of control
same,T/C,"T/C endpoint: mean survival time, dose: 4.69 mg/kg/injection, schedule: Q04DX003 (ip), vehicle: other",133 % of control
same,survivor count,"T/C endpoint: mean survival time, dose: 37.5 mg/kg/injection, schedule: Q04DX003 (ip), vehicle: other",10 of 10
CC1(C)C2CCC1(CS(=O)(=O)O)C(=O)C2Br.[Ag] (centres undefined),survivor count,"T/C endpoint: mean survival time, dose: 200.0 mg/kg/injection, schedule: Q04DX003 (ip), vehicle: acetone",3 of 6
same,survivor count,"T/C endpoint: mean survival time, dose: 400.0 mg/kg/injection, schedule: Q04DX003 (ip), vehicle: acetone",1 of 6
O=S=Nc1ccc(S(=O)(=O)c2ccc(N=S=O)cc2)cc1,survivor count,[7],2 of 6
same,survivor count,[8],3 of 6
NP(=O)(Oc1ccccc1)Oc1ccccc1,survivor count,"T/C endpoint: mean survival time, dose: 50.0 mg/kg/injection, schedule: Q01DX009 (ip), vehicle: saline with Tween-80",3 of 6
same,survivor count,[7],0 of 6
same,survivor count,[1],2 of 6
same,survivor count,[8],0 of 6
CC(C)(C)C1=CC(=O)C(Cl)(C(C)(C)C)C(Cl)C1=O (centres undefined),survivor count,[4],3 of 3
C=CC[n+]1ccccc1/C=C\c1ccc(N(C)C)cc1,survivor count,[9],0 of 6
same,survivor count,[10],0 of 6
CCCCCCCCCC(=O)NC(=S)Nc1ccc(C(=O)OCCCC)cc1,survivor count,[6],6 of 6
Oc1cc(O)c(Cl)cc1Cl,survivor count,"T/C endpoint: mean survival time, dose: 200.0 mg/kg/injection, schedule: Q01DX001 (ip), vehicle: saline",3 of 6
same,survivor count,"T/C endpoint: mean survival time, dose: 400.0 mg/kg/injection, schedule: Q01DX001 (ip), vehicle: saline",0 of 6
CC(C)(C)C1Sc2nc3ccccc3n2C1=O (centres undefined),survivor count,"T/C endpoint: mean survival time, dose: 100.0 mg/kg/injection, schedule: Q04DX003 (ip), vehicle: Klucel (hydroxypropylcellulose) (HPC)",0 of 6
same,survivor count,[11],0 of 6
same,survivor count,"T/C endpoint: mean survival time, dose: 400.0 mg/kg/injection, schedule: Q04DX003 (ip), vehicle: Klucel (hydroxypropylcellulose) (HPC)",0 of 6
NCCCNCCCCNCCCN,survivor count,"T/C endpoint: median survival time, dose: 124.0 mg/kg/injection, schedule: Q04DX003 (ip), vehicle: saline",0 of 4
c1ccc2c(c1)Sc1ccccc1N2CCCNC1=NCCO1,survivor count,[5],3 of 6
same,survivor count,[6],0 of 6
O=NNc1ccc2cccnc2n1,T/C,"T/C endpoint: median survival time, dose: 36.0 mg/kg/injection, schedule: Q01DX005 (ip), vehicle: water",143 % of control
same,survivor count,[12],5 of 6
same,survivor count,"T/C endpoint: median survival time, dose: 277.77 mg/kg/injection, schedule: Q01DX005 (ip), vehicle: water",4 of 6
CCn1c(=O)c2[nH]c(Cl)nc2n(CC)c1=O,survivor count,[11],5 of 6
Cc1ccc(O[Si](C)(C)C)cc1,survivor count,[3],2 of 6
same,survivor count,[2],0 of 6
c1ccc(OCCC[P+](c2ccccc2)(c2ccccc2)c2ccccc2)cc1,survivor count,"T/C endpoint: mean survival time, dose: 40.0 mg/kg/injection, schedule: Q01DX009 (ip), vehicle: saline",3 of 6
CC(C)(Nc1nc2c(ncn2C2OC(CO)C(O)C2O)c(=O)[nH]1)P(=O)(O)O (centres undefined),survivor count,[12],0 of 6
C=CCNC(=S)n1cnc(N)n1,survivor count,"T/C endpoint: mean survival time, dose: 200.0 mg/kg/injection, schedule: Q04DX002 (ip), vehicle: saline with Tween-80",2 of 3
same,survivor count,"T/C endpoint: mean survival time, dose: 400.0 mg/kg/injection, schedule: Q04DX002 (ip), vehicle: saline with Tween-80",0 of 3
CC(=O)NC1=CC(=O)C(C)=CC1=O,survivor count,"T/C endpoint: mean survival time, dose: 20.0 mg/kg/injection, schedule: Q01DX001 (ip), vehicle: saline",3 of 6
same,survivor count,"T/C endpoint: mean survival time, dose: 40.0 mg/kg/injection, schedule: Q01DX001 (ip), vehicle: saline",0 of 6
same,survivor count,"T/C endpoint: mean survival time, dose: 75.0 mg/kg/injection, schedule: Q01DX001 (ip), vehicle: saline",0 of 6
same,survivor count,[13],0 of 6
same,survivor count,[9],0 of 6
same,survivor count,[10],0 of 6
CCOC12CC3C4=CCOC5CC(=O)N6c7ccccc7C1(CCN2C4)C6C53 (centres undefined),survivor count,[13],0 of 6
